Data taken from ChEMBL document CHEMBL3988442, “University of Dundee, Small-Polar-MMV Screening Library” (2021).

Protein sequences, listed by entry. Tags and fused reporters are not part of them.
UniProt P9WPC5, whole entry: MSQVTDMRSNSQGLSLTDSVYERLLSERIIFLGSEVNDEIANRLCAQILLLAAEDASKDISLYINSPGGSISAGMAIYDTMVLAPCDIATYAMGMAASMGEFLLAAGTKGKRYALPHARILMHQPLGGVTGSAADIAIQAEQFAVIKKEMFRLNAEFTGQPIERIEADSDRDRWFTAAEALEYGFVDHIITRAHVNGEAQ
UniProt P9WPC3, whole entry partner: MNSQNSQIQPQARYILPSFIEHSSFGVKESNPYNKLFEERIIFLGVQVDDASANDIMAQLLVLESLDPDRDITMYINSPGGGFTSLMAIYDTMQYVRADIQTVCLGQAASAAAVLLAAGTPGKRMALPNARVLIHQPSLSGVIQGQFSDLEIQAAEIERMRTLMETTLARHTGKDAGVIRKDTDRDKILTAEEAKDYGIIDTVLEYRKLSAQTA
UniProt P9WNZ1, whole entry: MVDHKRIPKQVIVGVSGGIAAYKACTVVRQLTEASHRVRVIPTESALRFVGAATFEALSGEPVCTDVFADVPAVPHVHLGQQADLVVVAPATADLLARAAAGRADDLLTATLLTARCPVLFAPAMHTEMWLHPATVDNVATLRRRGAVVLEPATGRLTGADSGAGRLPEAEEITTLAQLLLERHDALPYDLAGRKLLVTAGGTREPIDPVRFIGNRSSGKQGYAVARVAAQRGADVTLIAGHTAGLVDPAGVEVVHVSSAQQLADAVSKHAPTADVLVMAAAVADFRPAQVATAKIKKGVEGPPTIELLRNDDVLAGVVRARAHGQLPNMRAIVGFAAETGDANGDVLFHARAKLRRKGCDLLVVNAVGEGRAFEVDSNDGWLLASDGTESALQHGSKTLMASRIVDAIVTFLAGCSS

Results are given as percent effect. The record does not define 0% and 100%; most values in the screen are far below 50% and negative numbers occur (in some assays of this library far below -100). This is an unselected part of the compounds tested. A dash means the value is not listed here; it may have been measured.

ClpP1P2: 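ClpP1P2, Mycobacterium tuberculosis (UniProt P9WPC5 and UniProt P9WPC3). Protease assay of ClpP1P2, read by the AMC dye that it sets free. Concentration: 50 µM. Higher reads as stronger inhibition, judged from the few compounds that gave an IC50. Most other retested compounds had strongly negative values. About 69,000 compounds were tested under these conditions; 0.015% (about 10) showed 50% or more at least once.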
CoaBC: 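Coenzyme A biosynthesis protein CoaBC, Mycobacterium tuberculosis (UniProt P9WNZ1). Enzyme assay of CoaBC with a phosphate dye (Biomol Green) read at 650 nm. Concentration: 30 µM. Direction is inferred from only a few compounds that gave an IC50; most scored high, so higher reads as stronger inhibition. Most strong results did not repeat in a second test. Size under these conditions: about 67,000 compounds, about 40 of them at 50% or above in at least one test.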
Toxoplasma: 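Assay of Toxoplasma gondii numbers, read through their beta-galactosidase reporter with a colour substrate. Compounds at 10 µM. Higher reads as fewer parasites (inferred from which compounds were picked for retests). Of about 67,000 compounds tested this way, about 260 (0.38%) reached 50% or more in at least one test.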

structure	ClpP1P2	CoaBC	Toxoplasma
Cc1ccc(O)c(CNC2CCc3nc(C(C)C)nn3C2)n1 (stereo unspecified)	-1.117	5.533	2.564
O=C(O)C(F)(F)F.O=C(c1ccccn1)N1CCC2(CC1)COC(COCC1CC1)C2 (stereo unspecified)	-	-	2.556
O[C@@H]1CN(Cc2ccc(F)cc2)CC[C@H]1NCc1ccccn1	-13.43	0.2466	-
CN1CCN(CCO)C(=O)C12CCN(Cc1ccsc1)CC2	12.68	1.935	-
O=C1N(Cc2ccc(F)c(F)c2)CCCC12CCN(C1CCCC1)C2 (stereo unspecified)	-16.05	1.525	4.113
CC(=O)c1ccc(S(=O)(=O)N2CCCC2CN2CCCC2)cc1 (stereo unspecified)	-5.913	0.7317	-24.74
CCN(C(=O)Nc1nncs1)C(C)c1cccc(OC)c1 (stereo unspecified)	2.253	1.901	-1.631
Cc1cc(CN(CCCO)c2ccccc2)on1	-18.92	3.388	-15.24
Cc1cccc(N2CCc3ncc(CNS(C)(=O)=O)n3CC2)n1	-4.425	-0.9877	-
OCC1(O)CCN(Cc2ccc(C3CCCCO3)o2)CC1 (stereo unspecified)	1.329	15.29	1.978
Cn1cnc(-c2nc(C(=O)NCCN3CCCC3)c3ccccn23)c1	-127.6	2.463	-16.78
Cc1nc(C2CCNCC2)cc(N(C)Cc2cc3cc(F)ccc3[nH]2)n1	0.01232	6.897	63.01
O=C(COC[C@@H]1CC[C@H]2[C@H](CCN2Cc2ccco2)O1)N1CCCC1	22.16	9.532	-
CCN(CC)Cc1ccc(C(=O)N2CCCC2c2cnn(C)c2)o1 (stereo unspecified)	10.29	1.673	-6.108
CCc1ccc(CN2C[C@@H](C(=O)O)[C@H](c3ccccc3OC)C2)o1	-6.891	-2.959	-8.192
CN(C)C(=O)c1coc(COc2ccccc2)n1	1.36	4.883	5.693
CN(C)S(=O)(=O)N1CC[C@]2(C[C@@H](OCc3ccccn3)CO2)C1.O=C(O)C(F)(F)F	-	-	6.336
CN(Cc1ccc(Cl)s1)C(=O)NCCN1CCCCCC1=O	-1.405	-5.212	9.13
CCCC(=O)N1CCC2(CC1)OCCO2	-5.573	5.607	7.594
CC(=O)Nc1ncc(S(=O)(=O)Nc2cccc(O)c2)s1	6.512	15.94	62.29
Cn1cc(CN2CCC3(CCCN3Cc3cccnc3)CC2)cn1	-23.77	2.589	-
CNC(=O)C1CCCCN1C(=O)Cc1csc(-c2ccc(C)o2)n1 (stereo unspecified)	4.857	2.871	6.433
c1ncn(CC2CN(Cc3nc(C4CC4)no3)CCO2)n1 (stereo unspecified)	15	2.806	5.839
O=C(O)c1cccnc1CN1CCOc2ccccc2C1	-2.066	6.129	-1.07
O=C(O)C(F)(F)F.c1ccc(CN2CCc3c(CNc4nccs4)n[nH]c3C2)nc1	-	-	20.33
OC(CN1CCC(c2ccn[nH]2)CC1)c1ccc(F)cc1 (stereo unspecified)	-4.449	7.675	-25.47
CCc1nnc(C(C)N2CCN(CCC(C)(C)C)CC2)o1 (stereo unspecified)	0.6711	-1.942	-2.971
COC(=O)c1ccc(N2CCN(C(=O)CC(F)(F)F)C(C)C2)cc1 (stereo unspecified)	-10.94	2.644	-14.42
O=S(=O)(c1ccccc1)N1CCCCC1c1cc[nH]n1 (stereo unspecified)	5.67	4.581	-15.46
CCNC(=O)NC(=O)C(C)N1CCCc2cc(OC)ccc2C1 (stereo unspecified)	-2.241	-	-5.023
COc1cccc(NC(=O)NCC(O)c2ccc(F)cc2F)c1 (stereo unspecified)	14.41	3.602	-13.81
CC(C)n1[nH]c(=O)c2c1NC(=O)CC2c1cccc(OC(F)F)c1 (stereo unspecified)	3.118	-16.23	3.37
CCn1nc2c(cc1=O)CN(CCOc1cccc(C#N)c1)CC2	4.333	1.945	1.593
CC(C)[C@@H]1CN(Cc2cnc(C3CCCCC3)nc2)C[C@H]1C(=O)O	10.86	12.96	2.155
CNC(=O)CNC(=O)NCc1cc2c(s1)CCC(C)(C)C2	-1.458	3.694	3.672
CC(=O)NCc1ccc(S(=O)(=O)NC(=O)c2ccc3c(c2)CCO3)s1	-7.505	2.418	6.928
CCn1nc(CC(C)C)cc1C(=O)N1CCOCC(O)C1 (stereo unspecified)	3.766	2.621	-5.139
Cc1cc(C)nc(N2CCC(c3cccc(CCC(=O)O)n3)CC2)n1	-33.27	-1.598	-7.499
O=C(O)C(F)(F)F.O=C(O)C(F)(F)F.[H][C@@]12CN(Cc3ccsc3)CCC[C@]1(C(=O)OCC)CN(CCOC)C2	-	-	6.817
Cc1cc(CN2CCC(CNS(=O)(=O)c3ccc(Br)s3)CC2)c(C)o1	-0.5475	8.866	12.75
CCn1cc(S(=O)(=O)N(C)Cc2c(Br)cnn2CC)c(C)n1	11.57	4.581	-7.153
CC(C)(N)CNS(=O)(=O)Cc1cccc2cccnc12.Cl	-	-	10.35
Cc1nc(CN2CCCC(c3cnccn3)C2)cs1 (stereo unspecified)	-21.08	1.196	-1.603
O=C(NCc1ccccn1)c1cc2n(n1)CCNC2	-2.601	-3.137	-10.88
CC(C)c1ccc(-n2nnc(C(=O)O)c2-c2ccccn2)cc1	-0.4051	4.04	4.062
Cc1ccc(CN2C[C@H]3C(=O)N(CC4CC4)C[C@@]3(C(=O)O)C2)c(F)c1F	16.38	-1.411	-
CCc1cnc(C)nc1NCCN1CCC(O)CC1	4.688	-6.688	-4.882
CCNc1nc2c(s1)C(=O)CN(C(=O)NCCc1ccccc1)C2	-11.39	0.6519	1.471
Cc1nc(N2CCCC2)ncc1-c1cc(O)nc(N2CCOCC2)n1	-1.137	-2.54	-5.051
CC(C)c1nc(C2CCCN2C(=O)c2cnns2)no1 (stereo unspecified)	-32.37	4.857	20.31
Cc1noc(C(C)N2CCN(Cc3nnc(C4CC4)o3)CC2)n1 (stereo unspecified)	-11.86	-1.828	2.336

Some entries from above, unchanged:

- CCn1nc(CC(C)C)cc1C(=O)N1CCOCC(O)C1 (stereo unspecified) | ClpP1P2: 3.766%; CoaBC: 2.621%; Toxoplasma: -5.139%
- O=C(NCc1ccccn1)c1cc2n(n1)CCNC2 | ClpP1P2: -2.601%; CoaBC: -3.137%; Toxoplasma: -10.88%
- CC(=O)NCc1ccc(S(=O)(=O)NC(=O)c2ccc3c(c2)CCO3)s1 | ClpP1P2: -7.505%; CoaBC: 2.418%; Toxoplasma: 6.928%
- O=C1N(Cc2ccc(F)c(F)c2)CCCC12CCN(C1CCCC1)C2 (stereo unspecified) | ClpP1P2: -16.05%; CoaBC: 1.525%; Toxoplasma: 4.113%